Assay in all cases: co-IP
Test [1] addresses HA-JICD1 (JAG1 intracellular domain) (human) (UniProt P78504).
The target is the same in test [2]. The source holds these as a separate data set.
Test [3] addresses FLAG-SMAD3 mutant consisting of only the linker domain (human) (UniProt P84022).

By UniProt entry, the sequences of proteins in these tests, tags left out. Where a name states a change or a piece, a line headed by the entry shows the natural chain unless it says otherwise.
UniProt P78504: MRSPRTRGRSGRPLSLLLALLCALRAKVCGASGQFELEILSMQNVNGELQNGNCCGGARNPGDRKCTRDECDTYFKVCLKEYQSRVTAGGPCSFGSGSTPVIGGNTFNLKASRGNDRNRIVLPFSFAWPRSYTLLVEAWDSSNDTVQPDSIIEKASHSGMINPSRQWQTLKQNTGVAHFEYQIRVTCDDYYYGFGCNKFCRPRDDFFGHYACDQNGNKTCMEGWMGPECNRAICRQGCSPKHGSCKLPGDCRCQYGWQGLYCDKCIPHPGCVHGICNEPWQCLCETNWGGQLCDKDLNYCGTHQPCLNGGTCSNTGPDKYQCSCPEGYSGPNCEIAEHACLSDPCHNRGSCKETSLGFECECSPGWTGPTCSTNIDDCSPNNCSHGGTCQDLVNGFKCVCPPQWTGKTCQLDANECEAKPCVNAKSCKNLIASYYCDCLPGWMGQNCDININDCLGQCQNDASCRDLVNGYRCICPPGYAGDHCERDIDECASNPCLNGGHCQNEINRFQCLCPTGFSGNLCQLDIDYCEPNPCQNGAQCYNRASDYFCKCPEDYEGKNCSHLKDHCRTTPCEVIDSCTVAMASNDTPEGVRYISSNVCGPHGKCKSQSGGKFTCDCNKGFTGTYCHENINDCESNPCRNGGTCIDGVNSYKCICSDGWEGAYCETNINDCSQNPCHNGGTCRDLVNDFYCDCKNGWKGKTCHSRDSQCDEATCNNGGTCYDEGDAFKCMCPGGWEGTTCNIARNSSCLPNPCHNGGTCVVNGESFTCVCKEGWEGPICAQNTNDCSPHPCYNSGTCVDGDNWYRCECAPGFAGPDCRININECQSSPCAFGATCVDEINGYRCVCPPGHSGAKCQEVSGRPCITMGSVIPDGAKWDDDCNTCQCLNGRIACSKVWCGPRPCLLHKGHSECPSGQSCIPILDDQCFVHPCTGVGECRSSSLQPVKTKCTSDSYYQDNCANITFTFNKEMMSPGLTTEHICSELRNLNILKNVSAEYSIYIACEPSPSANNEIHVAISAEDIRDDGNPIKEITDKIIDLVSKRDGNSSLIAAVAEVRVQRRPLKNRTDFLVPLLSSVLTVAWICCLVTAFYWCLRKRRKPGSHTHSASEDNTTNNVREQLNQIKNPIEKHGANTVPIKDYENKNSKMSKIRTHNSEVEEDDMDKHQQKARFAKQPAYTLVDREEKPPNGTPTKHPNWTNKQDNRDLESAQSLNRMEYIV
UniProt P84022: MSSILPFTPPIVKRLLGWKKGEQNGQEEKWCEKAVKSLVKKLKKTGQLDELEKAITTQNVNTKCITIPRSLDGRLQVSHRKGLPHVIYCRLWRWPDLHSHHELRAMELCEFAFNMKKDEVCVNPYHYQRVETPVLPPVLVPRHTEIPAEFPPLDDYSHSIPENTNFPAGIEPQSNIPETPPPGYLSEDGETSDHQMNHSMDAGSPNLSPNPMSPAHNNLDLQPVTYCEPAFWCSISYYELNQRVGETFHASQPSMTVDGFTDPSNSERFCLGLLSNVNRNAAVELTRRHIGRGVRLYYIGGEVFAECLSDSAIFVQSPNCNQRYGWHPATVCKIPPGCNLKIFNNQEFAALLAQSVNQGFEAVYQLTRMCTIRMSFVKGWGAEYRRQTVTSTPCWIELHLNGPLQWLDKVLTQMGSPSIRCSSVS
UniProt Q15583: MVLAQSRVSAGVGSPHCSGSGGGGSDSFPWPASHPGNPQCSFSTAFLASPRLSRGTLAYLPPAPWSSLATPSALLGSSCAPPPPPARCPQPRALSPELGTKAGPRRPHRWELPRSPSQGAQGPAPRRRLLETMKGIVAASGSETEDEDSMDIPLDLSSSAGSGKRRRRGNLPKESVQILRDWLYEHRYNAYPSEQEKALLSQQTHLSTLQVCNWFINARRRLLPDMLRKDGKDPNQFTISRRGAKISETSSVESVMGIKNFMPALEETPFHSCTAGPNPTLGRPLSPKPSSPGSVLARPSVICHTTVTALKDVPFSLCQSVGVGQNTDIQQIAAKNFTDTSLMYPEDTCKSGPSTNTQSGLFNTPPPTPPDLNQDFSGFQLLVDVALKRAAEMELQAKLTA
UniProt Q9GZN2: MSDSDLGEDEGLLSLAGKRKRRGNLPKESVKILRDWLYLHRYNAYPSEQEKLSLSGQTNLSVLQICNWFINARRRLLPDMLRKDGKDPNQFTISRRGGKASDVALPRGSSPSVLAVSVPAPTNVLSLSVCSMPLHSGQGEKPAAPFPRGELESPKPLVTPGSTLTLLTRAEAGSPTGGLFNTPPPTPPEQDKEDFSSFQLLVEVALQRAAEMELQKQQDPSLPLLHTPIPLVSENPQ

Read-outs that look alike come from different tables or passages of the source. Results are given in words; binding and its absence hold for the method and conditions named. In cells and extracts the contact can be indirect. For part of these data: A result given as binding can be weak or reduced; the word gives no strength.

In the case of “FLAG-TGIF1 (TGFB-induced factor homeobox 1) (from UniProt Q15583 1-401)”, the binding result in test [1] and in test [2] was “no binding” each time. For the substance HA-TGIF2 (from UniProt Q9GZN2 1-237), the binding result in test [3] was “binds”.
